Sequences of proteins named here, by UniProt entry; tags and fusion partners are left off. Residues count along the entry.
UniProt P04629, 33-796 limits assumed: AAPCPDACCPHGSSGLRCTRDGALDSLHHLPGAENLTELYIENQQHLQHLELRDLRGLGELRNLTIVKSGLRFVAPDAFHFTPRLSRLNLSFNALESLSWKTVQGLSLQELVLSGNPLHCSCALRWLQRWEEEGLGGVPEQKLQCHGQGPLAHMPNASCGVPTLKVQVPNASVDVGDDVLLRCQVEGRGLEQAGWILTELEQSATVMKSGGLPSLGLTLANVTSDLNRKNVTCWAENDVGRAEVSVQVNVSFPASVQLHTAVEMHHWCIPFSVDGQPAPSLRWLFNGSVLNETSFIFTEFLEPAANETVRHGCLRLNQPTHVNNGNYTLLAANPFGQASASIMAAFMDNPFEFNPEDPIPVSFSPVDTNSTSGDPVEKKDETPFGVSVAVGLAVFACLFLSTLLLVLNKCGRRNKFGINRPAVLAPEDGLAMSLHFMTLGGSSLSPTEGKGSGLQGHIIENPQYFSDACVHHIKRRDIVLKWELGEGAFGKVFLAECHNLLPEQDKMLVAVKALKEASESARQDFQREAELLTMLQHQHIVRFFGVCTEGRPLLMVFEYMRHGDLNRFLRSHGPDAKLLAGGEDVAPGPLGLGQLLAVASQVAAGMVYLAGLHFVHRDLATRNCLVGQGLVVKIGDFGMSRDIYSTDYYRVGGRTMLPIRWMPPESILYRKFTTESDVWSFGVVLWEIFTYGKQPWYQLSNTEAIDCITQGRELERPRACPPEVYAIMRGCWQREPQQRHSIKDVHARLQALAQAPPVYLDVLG
UniProt Q16620, 32-822 limits assumed: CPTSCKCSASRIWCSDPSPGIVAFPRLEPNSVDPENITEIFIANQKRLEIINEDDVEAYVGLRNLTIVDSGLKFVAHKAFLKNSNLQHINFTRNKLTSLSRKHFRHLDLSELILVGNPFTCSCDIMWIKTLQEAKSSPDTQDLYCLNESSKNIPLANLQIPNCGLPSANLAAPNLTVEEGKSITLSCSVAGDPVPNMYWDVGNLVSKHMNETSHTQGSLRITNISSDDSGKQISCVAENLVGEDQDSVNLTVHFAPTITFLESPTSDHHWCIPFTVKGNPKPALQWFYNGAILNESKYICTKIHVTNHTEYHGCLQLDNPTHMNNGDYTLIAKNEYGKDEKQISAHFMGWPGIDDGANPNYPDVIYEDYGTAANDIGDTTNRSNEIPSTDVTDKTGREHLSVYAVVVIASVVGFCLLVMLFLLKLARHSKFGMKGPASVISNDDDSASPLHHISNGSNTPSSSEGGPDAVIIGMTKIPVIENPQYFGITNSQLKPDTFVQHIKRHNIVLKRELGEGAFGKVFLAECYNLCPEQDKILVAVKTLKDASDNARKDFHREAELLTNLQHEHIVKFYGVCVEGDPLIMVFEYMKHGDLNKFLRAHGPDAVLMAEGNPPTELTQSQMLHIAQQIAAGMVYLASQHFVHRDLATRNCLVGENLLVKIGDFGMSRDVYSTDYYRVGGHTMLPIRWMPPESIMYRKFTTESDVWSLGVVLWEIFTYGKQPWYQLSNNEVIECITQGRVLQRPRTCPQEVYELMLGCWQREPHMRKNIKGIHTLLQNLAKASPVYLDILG

In patent US9067914B1, “Tropomyosin-related kinase (TRK) inhibitors” (Genzyme Corporation, priority 2013, dated 2015):

Tests used:
TrkA = TrkA (Homo sapiens (Human), UniProt P04629); assay: TrkA activity, off-chip mobility shift assay (LabChip 3000); format: biochemical; settings: read-out: IC50 TrkA; 55 μM ATP (ATP Km); n/d = none detected
TrkB = TrkB (Homo sapiens (Human), UniProt Q16620); assay: TrkB activity, off-chip mobility shift assay (LabChip 3000); format: biochemical; settings: read-out: IC50 TrkB; 70 μM ATP (ATP Km); n/d = none detected

SMILES: COc1ccc(COc2ccc(Cn3cnc4cc(-c5cncnc5)ccc43)cc2OC)cn1
- IC50 (TrkA): 836 nM
- IC50 (TrkB): 252 nM

The structures given here were assigned with low confidence; some may be wrong.
